Experimental data as given in patent publication EP0426314B1, “HIV related peptides” (VIRAL TECHNOLOGIES, INC., priority 1989, dated 1995).
Not every detail of the peptide structures is certain; ends, links or a residue may be inferred. Where no end group is shown, it is not given here.

How the values were obtained:
[1] = tested on: sera from four Rhesus Monkeys given live HIV-1; test: ELISA of sera from Rhesus monkeys given live HIV-1 for antibodies to p17 peptides (Figure 5); type: binding; conditions: result in words
Source text: • Figure 1 is a schematic drawing illustrating the proposed orientation for the p17 gag protein of HIV; • Figure 2 is a chart depicting the primary amino acid sequences of HIV-1 p17 (strain HB10) and also of the p17 proteins of HIV-2 and SIV; • Figure 3 is another chart depicting the primary amino acid sequence of the peptides in p17; • Figure 4 is a graph plotting antibody titers of HIV p17 peptides in rabbits immunized with native HIV p17; and • Figure 5 is a bar graph illustrating the results of ELISA analysis of sera from 4 Rhesus monkeys exposed to live HIV antibodies to the p17 peptide fragments of this invention.
In another test, sera from four Rhesus Monkeys given live HIV-1 were also evaluated for antibodies to Peptides A, B, C, D and E and the results are shown in Figure 5. […] Sera from individuals who had been naturally exposed to the HIV virus and were seropositive for p17 were also evaluated.

[2] = tested on: antibodies of a rabbit immunized with native (intact) HIV p17; test: Antibody titers to p17 peptides in a rabbit immunized with native HIV p17 (Figure 4); type: binding; conditions: rabbit immunized with HPLC-purified native HIV p17, synthetic peptide analogs, result in words

| Compound | antibody response [1] | antibody titers [2] |
| --- | --- | --- |
| AQQAAADTGHSSQVSQNY [Peptide E] | strong antibody response in at least one of the challenged monkeys |  |
| CC[C@H](C)[C@H](NC(=O)[C@H](CCCCN)NC(=O)[C@H](CCC(=O)O)NC(=O)[C@H](Cc1c[nH]c2ccccc12)NC(=O)[C@H](CCCNC(=N)N)NC(=O)[C@H](CC(=O)O)NC(=O)[C@H](CC(C)C)NC(=O)[C@H](CCC(=O)O)NC(=O)CNC(=O)CNC(=O)[C@H](CO)NC(=O)[C@H](CC(C)C)NC(=O)[C@@H](NC(=O)[C@H](CO)NC(=O)[C@H](C)NC(=O)[C@H](CCCNC(=N)N)NC(=O)[C@H](C)NC(=O)CN)C(C)C)C(=O)N[C@@H](CCCNC(=N)N)C(=O)N[C@@H](CC(C)C)C(=O)N[C@@H](CCCNC(=N)N)C(=O)N1CCC[C@H]1C(=O)NCC(=O)NCC(=O)N[C@@H](CCCCN)C(=O)N[C@@H](CCCCN)C(=O)N[C@@H](CCCCN)C(=O)N[C@@H](Cc1ccc(O)cc1)C(=O)N[C@@H](CCCCN)C(=O)N[C@@H](CC(C)C)C(=O)N[C@@H](CCCCN)C(=O)N[C@@H](Cc1c[nH]cn1)C(=O)N[C@@H](CCCCN)C(=O)O [Peptide A (33-Lys)] |  | weak titers |
| IVWASRELERFAVNPGLLY [Peptide B (51-Tyr)] |  | Substantially no antibodies |
